From paper PMC4770193
Results are given in words; binding and its absence hold for the method and conditions named. Some binding calls cover weakened binding; strength is not graded here.

By UniProt entry, the sequences of proteins in these tests, tags left out.
UniProt P04610: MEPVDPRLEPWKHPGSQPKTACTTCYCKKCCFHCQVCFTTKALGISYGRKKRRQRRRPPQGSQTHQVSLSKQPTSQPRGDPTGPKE
UniProt Q04759: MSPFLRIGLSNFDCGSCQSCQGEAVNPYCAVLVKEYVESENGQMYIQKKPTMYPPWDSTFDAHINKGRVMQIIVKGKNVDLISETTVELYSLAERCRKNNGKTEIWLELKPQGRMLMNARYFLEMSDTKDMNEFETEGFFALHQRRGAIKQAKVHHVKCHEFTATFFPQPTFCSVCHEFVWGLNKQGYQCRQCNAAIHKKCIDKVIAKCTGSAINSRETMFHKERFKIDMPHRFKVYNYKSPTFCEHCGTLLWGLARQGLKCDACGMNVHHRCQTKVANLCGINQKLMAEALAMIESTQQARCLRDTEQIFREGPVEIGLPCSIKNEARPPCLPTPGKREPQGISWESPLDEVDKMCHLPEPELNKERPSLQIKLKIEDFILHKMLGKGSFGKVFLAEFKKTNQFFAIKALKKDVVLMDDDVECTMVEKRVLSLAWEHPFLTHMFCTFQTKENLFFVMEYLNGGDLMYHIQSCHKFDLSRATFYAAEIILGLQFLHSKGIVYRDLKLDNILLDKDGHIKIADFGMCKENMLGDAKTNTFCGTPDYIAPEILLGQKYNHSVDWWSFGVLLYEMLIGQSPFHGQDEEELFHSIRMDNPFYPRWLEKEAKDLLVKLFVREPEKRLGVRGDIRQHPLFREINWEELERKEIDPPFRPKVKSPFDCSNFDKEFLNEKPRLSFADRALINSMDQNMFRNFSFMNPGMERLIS

Target: HIV-1 Tat of strain NL4-3_wt in infected human PBLs (HIV-1) (UniProt P04610)
Assay: sequential ChIP (re-ChIP); primary ChIP with an antibody against Tat, then secondary ChIP with an antibody against PKCθ; recovered DNA read by qPCR with primers spanning -39 to +66 of the HIV-1 LTR promoter (contains the TAR loop); Jurkat E6-1 cells transfected with HIV-1 clone, and human PBLs infected with NL4-3_wt for 3 days; N = 2

## PKCθ (protein kinase C theta), endogenous in human peripheral blood lymphocytes (from UniProt Q04759 1-706) (enzyme)
  binding: binds
